Reference: article PMC7835381
No constants are given. Whether binding was seen depends on the method and setting. In cells and extracts the contact can be indirect. Some results given as binding are weak or reduced against the parent protein; the word gives no strength.

Biological target: EGF receptor (EGFR), mouse, endogenous in primary keratinocytes (mouse (endogenous in primary keratinocytes)) (UniProt Q01279)
Assay: proximity ligation; in situ PLA (Duolink) with anti-EGFR antibody on primary C6st-1 WT, HE and KO mouse keratinocytes; keratinocytes digested with chondroitinase ABC as control

binding: binds
Substance: EGF receptor (EGFR), mouse, endogenous in primary keratinocytes (from UniProt Q01279 25-1210)
